Data as given in PubChem BioAssay AID1159578 (Peter MacCallum Cancer Centre, 2015)
Here is an unselected part of about 18,000 reagents. Of all reagents, about 1,030 (5.7%) are marked active. 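Inactive calls also include pools with fewer than 3300 nuclei, whose migration was not assessed.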 Raw values vary from plate to plate and are shown uncorrected. Not all columns of the deposit are shown. No sequences are given here.

Test: 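siRNA pools altering how lymphatic endothelial cells close a scratch wound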 (primary screen)
System: human lymphatic endothelial cells
Knock-down reagent: siRNA pool against human genes, 40 nM
Timing: 48 h after transfection
Detection: 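High-content imaging of dye-stained cells in a scratch assay measures filled wound area and nuclei per well; duplicate means given as ratio to mock and robust z-score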
Scale: migration robust z-score: higher = faster migration into the scratch; nuclei per well: higher = more cells in the well
Rule for the call: 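Migration changed when robust z exceeds 2 or falls below -2 and mean nuclei number is at least 3300; otherwise not called changed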
Meaning of the calls: active = migration changed; inactive = no migration change, or too few cells

The first 2 records as a preview:
NHEJ1 (GeneID 79840) | migration robust z-score = 0.31; migration class with cell-count check = migration z between -2 and 2; enough cells; nuclei per well, duplicate mean = 6344; outcome = inactive
MRTFA (GeneID 57591) | migration robust z-score = 0.11; migration class with cell-count check = migration z between -2 and 2; enough cells; nuclei per well, duplicate mean = 7039; outcome = inactive

Main list, from the first entry:
NHEJ1 (GeneID 79840) | migration robust z-score = 0.31; migration class with cell-count check = migration z between -2 and 2; enough cells; nuclei per well, duplicate mean = 6344; outcome = inactive
MRTFA (GeneID 57591) | migration robust z-score = 0.11; migration class with cell-count check = migration z between -2 and 2; enough cells; nuclei per well, duplicate mean = 7039; outcome = inactive
ZC3H18-DT (GeneID 400555) | migration robust z-score = 0.48; migration class with cell-count check = migration z between -2 and 2; enough cells; nuclei per well, duplicate mean = 4859; outcome = inactive
MPP1 (GeneID 4354) | migration robust z-score = 0.83; migration class with cell-count check = migration z between -2 and 2; enough cells; nuclei per well, duplicate mean = 4372; outcome = inactive
PRCD (GeneID 768206) | migration robust z-score = 0.06; migration class with cell-count check = migration z between -2 and 2; enough cells; nuclei per well, duplicate mean = 5774; outcome = inactive
CASP8AP2 (GeneID 9994) | migration robust z-score = -0.39; migration class with cell-count check = migration z between -2 and 2; enough cells; nuclei per well, duplicate mean = 4890; outcome = inactive
ZBTB49 (GeneID 166793) | migration robust z-score = 0.44; migration class with cell-count check = migration z between -2 and 2; enough cells; nuclei per well, duplicate mean = 5662; outcome = inactive
RAB5B (GeneID 5869) | migration robust z-score = -0.42; migration class with cell-count check = migration z between -2 and 2; enough cells; nuclei per well, duplicate mean = 7392; outcome = inactive
EOMES (GeneID 8320) | migration robust z-score = -0.24; migration class with cell-count check = migration z between -2 and 2; enough cells; nuclei per well, duplicate mean = 5995; outcome = inactive
OSBPL2 (GeneID 9885) | migration robust z-score = 0.9; migration class with cell-count check = migration z between -2 and 2; enough cells; nuclei per well, duplicate mean = 6250; outcome = inactive
HSF5 (GeneID 124535) | migration robust z-score = 1.23; migration class with cell-count check = migration z between -2 and 2; enough cells; nuclei per well, duplicate mean = 6306; outcome = inactive
CIMIP2A (GeneID 401565) | migration robust z-score = -1.36; migration class with cell-count check = migration z between -2 and 2; enough cells; nuclei per well, duplicate mean = 4548; outcome = inactive
C5orf24 (GeneID 134553) | migration robust z-score = 1.73; migration class with cell-count check = migration z between -2 and 2; enough cells; nuclei per well, duplicate mean = 6165; outcome = inactive
RASSF3 (GeneID 283349) | migration robust z-score = 0.28; migration class with cell-count check = migration z between -2 and 2; enough cells; nuclei per well, duplicate mean = 6026; outcome = inactive
RGR (GeneID 5995) | migration robust z-score = -5.94; migration class with cell-count check = under 3300 nuclei; migration not judged; nuclei per well, duplicate mean = 3230; outcome = inactive
ALX4 (GeneID 60529) | migration robust z-score = 1.25; migration class with cell-count check = migration z between -2 and 2; enough cells; nuclei per well, duplicate mean = 5852; outcome = inactive
PHF23 (GeneID 79142) | migration robust z-score = 0.75; migration class with cell-count check = migration z between -2 and 2; enough cells; nuclei per well, duplicate mean = 6025; outcome = inactive
CACNG8 (GeneID 59283) | migration robust z-score = 0.21; migration class with cell-count check = migration z between -2 and 2; enough cells; nuclei per well, duplicate mean = 6072; outcome = inactive
RWDD2A (GeneID 112611) | migration robust z-score = 0.73; migration class with cell-count check = migration z between -2 and 2; enough cells; nuclei per well, duplicate mean = 5616; outcome = inactive
BAG6 (GeneID 7917) | migration robust z-score = 0.56; migration class with cell-count check = migration z between -2 and 2; enough cells; nuclei per well, duplicate mean = 6006; outcome = inactive
POGK (GeneID 57645) | migration robust z-score = -1.77; migration class with cell-count check = migration z between -2 and 2; enough cells; nuclei per well, duplicate mean = 5364; outcome = inactive
